# Results as given in PubChem BioAssay AID504834 (National Center for Advancing Translational Sciences (NCATS), 2011).
# Out of some 320,000 compounds screened, about 22,000 (6.9%) were called active. Inconclusive means that the source gave no clear call. Such entries were picked first, then a sample of the others. The call rests on the fitted dose curve; in most records, active means well fitted inhibition curve with a large enough effect; inconclusive means small, poorly fitted or top-dose-only effect, or another doubt; inactive means no such curve, though single readings can be large or run the other way. Potencies of inconclusive entries are doubtful fits and often do not repeat.
# Test: Primary qHTS for delayed death inhibitors of the malarial parasite plastid, 96 hour incubation
# Conditions: P. falciparum luciferase reporter growth; series mostly up to 28.7 µM; activity change, negative = inhibition: at the top concentration
# Procedure, shortened: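 P. falciparum expressing integrated firefly luciferase grown in erythrocytes (2% hematocrit, 0.05% parasitemia final) with compounds for 96 hours at 37 C, 5% CO2. Growth inhibition read as loss of luminescence after adding luciferase detection reagent.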
# On the % scale 0 is the no-effect control and ±100 the full control effect; potency means the concentration at half of the fitted maximal effect.
Structure (SMILES),Potency,"activity change, negative = inhibition"
CCC(C)[C@H](NC(=O)N1CC(=O)Nc2ccccc21)C(=O)N1CCC[C@H]1C(=O)O (stereo partly specified),"inconclusive: 18.5 µM [inhibitor, single point]",–
c1ccc(-n2nnnc2NC2CCCCC2)cc1,"inconclusive: 10.4 µM [inhibitor, partial curve, poor fit]",–
CC(=O)Nc1ccc(NC(=O)CSc2nnc(CNc3ccc(F)cc3)n2CC2CCCO2)cc1 (stereo unspecified),–,inactive: 10.5%
COc1ccc(C2C(C#N)=C(N)N(c3sc4c(c3C#N)CCCC4)C3=C2C(=O)CC(C)(C)C3)cc1OC (stereo unspecified),active: 5.22 µM,–
COc1cccc(C2CC(c3ccc(Cl)cc3Cl)n3nc(N)nc3N2)c1 (stereo unspecified),"inconclusive: 18.5 µM [inhibitor, single point]",–
COc1cc(C(=O)O/N=C2/C=CC(=O)C(C)=C2C)cc(OC)c1OC,"inconclusive: 0.0029 µM [inhibitor, full curve, poor fit]",–
O=C(Nc1ccc(Cl)cc1)N1CC=CCC1,–,inactive: 0.306%
COc1cc(C(=O)O)ccc1O,–,inactive: -5.22%
FC(F)(F)c1cccc(N2CCN(Cc3cccnc3)CC2)c1,active: 4.65 µM,–
COc1ccc(OCC(O)Cn2c(=N)n(Cc3ccccc3)c3ccccc32)cc1 (stereo unspecified),"inconclusive: 3.7 µM [inhibitor, partial curve]",–
CN(C)c1ccc(-c2nn3c(C4CCCCC4)nnc3s2)cc1,"inconclusive: 18.5 µM [inhibitor, single point]",–
CCC(=O)Nc1nc(C)c(C(=O)Nc2cccc(Cl)c2)s1,"inconclusive: 14.7 µM [inhibitor, single point]",–
Cc1ccc(NC(=O)CSc2nc(C)c(Cc3ccccc3)c(=O)[nH]2)cc1,–,inactive: -38.3%
CCOc1ccc2oc(C(=O)N3CCN(Cc4ccccc4)CC3)c(C)c2c1,–,inactive: -31.4%
NS(=O)(=O)c1ccc(Nc2nc(-c3ccc(O)cc3O)cs2)cc1,–,inactive: 30%
COc1ccc(CNC(=O)COc2ccc(OC)cc2)cc1,"inconclusive: 16.5 µM [inhibitor, single point]",–
CC(C)CCOc1ccc(C(=O)NCC(c2cccs2)N2CCOCC2)cc1 (stereo unspecified),"inconclusive: 11.7 µM [inhibitor, partial curve]",–
O=C(COc1ccc2c3c(c(=O)oc2c1)CCC3)NC1CCCCC1,–,inactive: 0%
CCOc1ccc(NC(=O)CCC(=O)NNC(=O)COc2ccccc2C)cc1,–,inactive: 16.7%
Cc1noc(C)c1C(=O)OCC(=O)C12CC3CC(CC(C3)C1)C2,"inconclusive: 18.5 µM [inhibitor, single point]",–
CSCC[C@H](NC(=O)[C@@H]1Cc2c([nH]c3ccccc23)C2c3ccccc3C(=O)N21)C(=O)NCC1CCCO1 (stereo partly specified),active: 9.28 µM,–
Cc1ccc(-c2nn(-c3ccccc3)cc2CN(Cc2ccccc2)C(=O)CCC(=O)O)o1,"inconclusive: 10.4 µM [inhibitor, single point]",–
CCCC(=O)c1ccc(N2CCN(C(=O)c3ccc(Br)cc3)CC2)c(F)c1,"inconclusive: 0.586 µM [inhibitor, partial curve, poor fit]",–

# Taken from above:
# Potency, Cc1noc(C)c1C(=O)OCC(=O)C12CC3CC(CC(C3)C1)C2 is entered as inconclusive: 18.5 µM [inhibitor, single point]
# Potency, Cc1ccc(-c2nn(-c3ccccc3)cc2CN(Cc2ccccc2)C(=O)CCC(=O)O)o1 is entered as inconclusive: 10.4 µM [inhibitor, single point]
# activity change, negative = inhibition, NS(=O)(=O)c1ccc(Nc2nc(-c3ccc(O)cc3O)cs2)cc1 is entered as inactive: 30%
# Potency, COc1cc(C(=O)O/N=C2/C=CC(=O)C(C)=C2C)cc(OC)c1OC is entered as inconclusive: 0.0029 µM [inhibitor, full curve, poor fit]

# More results follow:

Structure (SMILES),Potency,"activity change, negative = inhibition"
COc1cccc(CSc2nc3cc4c(cc3cc2C)OCCO4)c1,active: 5.86 µM,–
CC(=O)Oc1cc2c(C(=O)NCc3ccncc3)c(C)oc2c2ccccc12,"inconclusive: 18.5 µM [inhibitor, single point]",–
Cc1cc(C)nc(/N=C(\N)Nc2ccc(S(=O)(=O)Nc3nccc(C)n3)cc2)n1,active: 4.15 µM,–
Cn1c(/C=C/c2cccc(Br)c2)nc2ccccc2c1=O,"inconclusive: 18.5 µM [inhibitor, single point]",–
Nc1nnnn1/N=C/c1ccc(N2CCCCC2)c([N+](=O)[O-])c1,"inconclusive: 13.1 µM [inhibitor, single point]",–
O=C(Cc1ccccc1[N+](=O)[O-])NCCC1=CCCCC1,"inconclusive: 18.5 µM [inhibitor, single point]",–
O=C1NC2(CCC3(CC2)OCCO3)NN1c1ccc(Cl)cc1,–,inactive: 14.3%
CCCCCCN(C(=O)CCCCCN1C(=O)NC(c2ccc(-c3ccccc3)cc2)C(C(=O)OCc2ccccc2)=C1C)C(C(=O)NCCCC)c1ccc(-c2ccccc2)cc1 (stereo unspecified),active: 0.262 µM,–
Cc1ccc(CN2CCN(C(=O)c3ccco3)CC2)cc1,"inconclusive: 16.5 µM [inhibitor, single point]",–
CSc1oc(-c2ccco2)nc1S(=O)(=O)c1ccc(C)cc1,"inconclusive: 11.7 µM [inhibitor, single point]",–
COc1cc(S(=O)(=O)N2CCOCC2)cc(C(=O)OCC(=O)NC2CCCCC2)c1OC,"inconclusive: 9.28 µM [inhibitor, partial curve, poor fit]",–
CCCC12CN3CC(C)(CN(C1)C31C(=O)Nc3ccc(C)cc31)C2=O (stereo unspecified),–,inactive: 20.6%
CCOc1ccc(/C=N/NC(=O)c2cc(-c3ccco3)nc3ccccc23)cc1,–,inactive: 4.79%
CC1=CC(C)(C)N2C(=O)C3(C(C#N)=C(N)Oc4cc(O)ccc43)c3c(C)c(C)cc1c32 (stereo unspecified),"inconclusive: 2.94 µM [inhibitor, partial curve, poor fit]",–
O=C(NC(=S)Nc1ccc(N2CCOCC2)c(Cl)c1)c1cccs1,active: 2.33 µM,–
CC(C)c1ccccc1OCCCCCNCCO,active: 4.15 µM,–
COc1ccc(/C=C(/NC(=O)c2ccccc2)C(=O)Nc2cccc(C(=O)O)c2)cc1,"inconclusive: 11.7 µM [inhibitor, single point]",–
COc1cccc(NC(=O)Nc2cc(NC(=O)Nc3cccc(OC)c3)c(C)nc2C)c1,"inconclusive: 18.5 µM [inhibitor, single point]",–
CCN(CC)C(=O)NCc1c(C)cc(C)cc1C,–,inactive: -12.3%
COc1ccc(C(=O)Oc2cccc(/C=N/NC(N)=S)c2)cc1,–,inactive: -1.48%
Clc1ccc(CSc2nnc(NC3=NCCCCC3)s2)cc1,–,inactive: 11.2%
CCOc1ccc(OCc2ccc(C(=O)N3CCCC(C)C3)cc2)cc1 (stereo unspecified),"inconclusive: 18.5 µM [inhibitor, single point]",–
CC(C)c1ccc(CN2CCN(C(=O)CCl)CC2)cc1,"inconclusive: 11.7 µM [inhibitor, partial curve, poor fit]",–
